How the values were obtained:
[1] = system: A549, H1299, H1975 human lung cancer lines and BEAS-2B normal cell line, each cultured alone; test: VOCs headspace analysis (ITEX GC-MS) of mono-culture groups (Format-1), bulk cell samples 1×10^4 cells; type: cell-based; settings: bulk 1 × 10^4 cell
[2] = system: different-cell pairs of BEAS-2B, A549, H1299, H1975 without physical contact under a mutual headspace; test: VOCs headspace analysis (ITEX GC-MS) of different-cell pair co-culture headspace groups (Format-3), bulk cell samples; type: cell-based, human; settings: bulk 1 × 10^4 cell

Compound: CCC=C(CC)CC [VOC29]
- VOC level in headspace, area under curve (AUC) normalized by STD AUC ([1]; A (BEAS-2B) mono-culture): 7.01
- VOC level in headspace, area under curve (AUC) normalized by STD AUC ([1]; B (A549) mono-culture): 0
- VOC level in headspace, area under curve (AUC) normalized by STD AUC ([1]; C (H1299) mono-culture): 0
- VOC level in headspace, area under curve (AUC) normalized by STD AUC ([1]; D (H1975) mono-culture): 0
- VOC level in headspace, area under curve (AUC) normalized by STD AUC ([2]; A + B (BEAS-2B + A549)): 2.263
- VOC level in headspace, area under curve (AUC) normalized by STD AUC ([2]; A + C (BEAS-2B + H1299)): 1.367
- VOC level in headspace, area under curve (AUC) normalized by STD AUC ([2]; A + D (BEAS-2B + H1975)): 1.08
- VOC level in headspace, area under curve (AUC) normalized by STD AUC ([2]; B + C (A549 + H1299)): 0
- VOC level in headspace, area under curve (AUC) normalized by STD AUC ([2]; B + D (A549 + H1975)): 0
- VOC level in headspace, area under curve (AUC) normalized by STD AUC ([2]; C + D (H1299 + H1975)): 0

Compound: Oc1ccccc1 [VOC30]
- VOC level in headspace, area under curve (AUC) normalized by STD AUC ([1]; A (BEAS-2B) mono-culture): 0
- VOC level in headspace, area under curve (AUC) normalized by STD AUC ([1]; B (A549) mono-culture): 2.177
- VOC level in headspace, area under curve (AUC) normalized by STD AUC ([1]; C (H1299) mono-culture): 0
- VOC level in headspace, area under curve (AUC) normalized by STD AUC ([1]; D (H1975) mono-culture): 3.317
- VOC level in headspace, area under curve (AUC) normalized by STD AUC ([2]; A + B (BEAS-2B + A549)): 5.4575
- VOC level in headspace, area under curve (AUC) normalized by STD AUC ([2]; A + C (BEAS-2B + H1299)): 0
- VOC level in headspace, area under curve (AUC) normalized by STD AUC ([2]; A + D (BEAS-2B + H1975)): 3.798
- VOC level in headspace, area under curve (AUC) normalized by STD AUC ([2]; B + C (A549 + H1299)): 7.231
- VOC level in headspace, area under curve (AUC) normalized by STD AUC ([2]; B + D (A549 + H1975)): 5.247
- VOC level in headspace, area under curve (AUC) normalized by STD AUC ([2]; C + D (H1299 + H1975)): 3.187

Compound: CCCCCC(C)CC(C)(C)CC (centres unmarked) [VOC31]
- VOC level in headspace, area under curve (AUC) normalized by STD AUC ([1]; A (BEAS-2B) mono-culture): 2.549
- VOC level in headspace, area under curve (AUC) normalized by STD AUC ([1]; B (A549) mono-culture): 0
- VOC level in headspace, area under curve (AUC) normalized by STD AUC ([1]; C (H1299) mono-culture): 1.1004
- VOC level in headspace, area under curve (AUC) normalized by STD AUC ([1]; D (H1975) mono-culture): 0
- VOC level in headspace, area under curve (AUC) normalized by STD AUC ([2]; A + B (BEAS-2B + A549)): 4.957
- VOC level in headspace, area under curve (AUC) normalized by STD AUC ([2]; A + C (BEAS-2B + H1299)): 6.855
- VOC level in headspace, area under curve (AUC) normalized by STD AUC ([2]; A + D (BEAS-2B + H1975)): 2.1471
- VOC level in headspace, area under curve (AUC) normalized by STD AUC ([2]; B + C (A549 + H1299)): 0
- VOC level in headspace, area under curve (AUC) normalized by STD AUC ([2]; B + D (A549 + H1975)): 0
- VOC level in headspace, area under curve (AUC) normalized by STD AUC ([2]; C + D (H1299 + H1975)): 1.906

Compound: CCOC(=O)c1ccc(OCC)cc1 [VOC32]
- VOC level in headspace, area under curve (AUC) normalized by STD AUC ([1]; A (BEAS-2B) mono-culture): 0
- VOC level in headspace, area under curve (AUC) normalized by STD AUC ([1]; B (A549) mono-culture): 0
- VOC level in headspace, area under curve (AUC) normalized by STD AUC ([1]; C (H1299) mono-culture): 7.6306
- VOC level in headspace, area under curve (AUC) normalized by STD AUC ([1]; D (H1975) mono-culture): 0
- VOC level in headspace, area under curve (AUC) normalized by STD AUC ([2]; A + B (BEAS-2B + A549)): 0
- VOC level in headspace, area under curve (AUC) normalized by STD AUC ([2]; A + C (BEAS-2B + H1299)): 1.898
- VOC level in headspace, area under curve (AUC) normalized by STD AUC ([2]; A + D (BEAS-2B + H1975)): 0
- VOC level in headspace, area under curve (AUC) normalized by STD AUC ([2]; B + C (A549 + H1299)): 3.411
- VOC level in headspace, area under curve (AUC) normalized by STD AUC ([2]; B + D (A549 + H1975)): 0
- VOC level in headspace, area under curve (AUC) normalized by STD AUC ([2]; C + D (H1299 + H1975)): 2.638

Compound: CCCCCCCCCCCCCC(C)=O [VOC33]
- VOC level in headspace, area under curve (AUC) normalized by STD AUC ([1]; A (BEAS-2B) mono-culture): 4.667
- VOC level in headspace, area under curve (AUC) normalized by STD AUC ([1]; B (A549) mono-culture): 0
- VOC level in headspace, area under curve (AUC) normalized by STD AUC ([1]; C (H1299) mono-culture): 0
- VOC level in headspace, area under curve (AUC) normalized by STD AUC ([1]; D (H1975) mono-culture): 0
- VOC level in headspace, area under curve (AUC) normalized by STD AUC ([2]; A + B (BEAS-2B + A549)): 4.026
- VOC level in headspace, area under curve (AUC) normalized by STD AUC ([2]; A + C (BEAS-2B + H1299)): 0
- VOC level in headspace, area under curve (AUC) normalized by STD AUC ([2]; A + D (BEAS-2B + H1975)): 7.051
- VOC level in headspace, area under curve (AUC) normalized by STD AUC ([2]; B + C (A549 + H1299)): 0
- VOC level in headspace, area under curve (AUC) normalized by STD AUC ([2]; B + D (A549 + H1975)): 0
- VOC level in headspace, area under curve (AUC) normalized by STD AUC ([2]; C + D (H1299 + H1975)): 0

Compound: CC(C)(C)c1cc(C=O)cc(C(C)(C)C)c1O [VOC34]
- VOC level in headspace, area under curve (AUC) normalized by STD AUC ([1]; A (BEAS-2B) mono-culture): 4.548
- VOC level in headspace, area under curve (AUC) normalized by STD AUC ([1]; B (A549) mono-culture): 0
- VOC level in headspace, area under curve (AUC) normalized by STD AUC ([1]; C (H1299) mono-culture): 0
- VOC level in headspace, area under curve (AUC) normalized by STD AUC ([1]; D (H1975) mono-culture): 4.362
- VOC level in headspace, area under curve (AUC) normalized by STD AUC ([2]; A + B (BEAS-2B + A549)): 2.218
- VOC level in headspace, area under curve (AUC) normalized by STD AUC ([2]; A + C (BEAS-2B + H1299)): 2.389
- VOC level in headspace, area under curve (AUC) normalized by STD AUC ([2]; A + D (BEAS-2B + H1975)): 7.375
- VOC level in headspace, area under curve (AUC) normalized by STD AUC ([2]; B + C (A549 + H1299)): 0
- VOC level in headspace, area under curve (AUC) normalized by STD AUC ([2]; B + D (A549 + H1975)): 1.819
- VOC level in headspace, area under curve (AUC) normalized by STD AUC ([2]; C + D (H1299 + H1975)): 0

Compound: CCCCCCCCCCCCCCCC(C)=O [VOC35]
- VOC level in headspace, area under curve (AUC) normalized by STD AUC ([1]; A (BEAS-2B) mono-culture): 0
- VOC level in headspace, area under curve (AUC) normalized by STD AUC ([1]; B (A549) mono-culture): 6.902
- VOC level in headspace, area under curve (AUC) normalized by STD AUC ([1]; C (H1299) mono-culture): 0
- VOC level in headspace, area under curve (AUC) normalized by STD AUC ([1]; D (H1975) mono-culture): 5.215
- VOC level in headspace, area under curve (AUC) normalized by STD AUC ([2]; A + B (BEAS-2B + A549)): 4.2
- VOC level in headspace, area under curve (AUC) normalized by STD AUC ([2]; A + C (BEAS-2B + H1299)): 0
- VOC level in headspace, area under curve (AUC) normalized by STD AUC ([2]; A + D (BEAS-2B + H1975)): 2.035
- VOC level in headspace, area under curve (AUC) normalized by STD AUC ([2]; B + C (A549 + H1299)): 0
- VOC level in headspace, area under curve (AUC) normalized by STD AUC ([2]; B + D (A549 + H1975)): 9.132
- VOC level in headspace, area under curve (AUC) normalized by STD AUC ([2]; C + D (H1299 + H1975)): 0

Compound: N#C/C=C/C#N [VOC36]
- VOC level in headspace, area under curve (AUC) normalized by STD AUC ([1]; A (BEAS-2B) mono-culture): 0
- VOC level in headspace, area under curve (AUC) normalized by STD AUC ([1]; B (A549) mono-culture): 0
- VOC level in headspace, area under curve (AUC) normalized by STD AUC ([1]; C (H1299) mono-culture): 7.1158
- VOC level in headspace, area under curve (AUC) normalized by STD AUC ([1]; D (H1975) mono-culture): 10.52
- VOC level in headspace, area under curve (AUC) normalized by STD AUC ([2]; A + B (BEAS-2B + A549)): 0
- VOC level in headspace, area under curve (AUC) normalized by STD AUC ([2]; A + C (BEAS-2B + H1299)): 0
- VOC level in headspace, area under curve (AUC) normalized by STD AUC ([2]; A + D (BEAS-2B + H1975)): 0
- VOC level in headspace, area under curve (AUC) normalized by STD AUC ([2]; B + C (A549 + H1299)): 0
- VOC level in headspace, area under curve (AUC) normalized by STD AUC ([2]; B + D (A549 + H1975)): 0
- VOC level in headspace, area under curve (AUC) normalized by STD AUC ([2]; C + D (H1299 + H1975)): 4.126

From patent publication US20260079169A1, “VOLATILE ORGANIC COMPOUNDS AS MARKERS FOR CELLULAR COMMUNICATION” (Technion Research and Development Foundation Limited, priority 2020, published 2026)
